# Laboratory results taken from the supplement of paper PMC10849652.
# Sequences of proteins named here, by UniProt entry; tags and fusion partners are left off. A change or cut given only in a name is not applied to a line headed by its entry.
# UniProt Q9GZP4: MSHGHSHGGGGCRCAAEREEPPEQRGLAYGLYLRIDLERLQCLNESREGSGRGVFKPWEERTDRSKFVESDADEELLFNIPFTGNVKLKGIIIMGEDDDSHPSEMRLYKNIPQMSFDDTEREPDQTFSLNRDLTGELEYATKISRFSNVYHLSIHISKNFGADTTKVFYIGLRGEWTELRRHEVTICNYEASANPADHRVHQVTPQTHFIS
# UniProt Q9BUL5: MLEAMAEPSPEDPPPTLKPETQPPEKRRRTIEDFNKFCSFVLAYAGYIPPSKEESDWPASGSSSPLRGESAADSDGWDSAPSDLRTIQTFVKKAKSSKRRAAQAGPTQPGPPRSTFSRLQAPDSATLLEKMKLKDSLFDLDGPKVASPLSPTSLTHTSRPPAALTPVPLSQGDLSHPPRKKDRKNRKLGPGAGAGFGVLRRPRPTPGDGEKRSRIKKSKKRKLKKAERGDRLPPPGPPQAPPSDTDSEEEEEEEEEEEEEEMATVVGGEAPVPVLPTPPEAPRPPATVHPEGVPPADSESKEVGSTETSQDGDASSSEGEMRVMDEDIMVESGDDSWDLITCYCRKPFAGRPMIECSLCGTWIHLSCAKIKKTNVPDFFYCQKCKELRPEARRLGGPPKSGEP
# UniProt O95336: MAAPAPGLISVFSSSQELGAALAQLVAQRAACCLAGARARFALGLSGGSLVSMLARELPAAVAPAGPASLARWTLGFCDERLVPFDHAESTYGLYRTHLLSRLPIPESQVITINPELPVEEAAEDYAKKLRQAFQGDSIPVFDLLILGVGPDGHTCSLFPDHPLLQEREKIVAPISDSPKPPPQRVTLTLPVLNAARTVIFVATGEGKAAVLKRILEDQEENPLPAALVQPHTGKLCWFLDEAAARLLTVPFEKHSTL
# UniProt Q99471, whole entry, looked up: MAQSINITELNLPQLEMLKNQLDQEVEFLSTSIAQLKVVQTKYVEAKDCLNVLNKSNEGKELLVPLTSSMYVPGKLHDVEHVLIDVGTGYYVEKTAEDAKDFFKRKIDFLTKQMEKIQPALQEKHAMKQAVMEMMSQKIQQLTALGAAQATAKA
# UniProt Q8NHP8: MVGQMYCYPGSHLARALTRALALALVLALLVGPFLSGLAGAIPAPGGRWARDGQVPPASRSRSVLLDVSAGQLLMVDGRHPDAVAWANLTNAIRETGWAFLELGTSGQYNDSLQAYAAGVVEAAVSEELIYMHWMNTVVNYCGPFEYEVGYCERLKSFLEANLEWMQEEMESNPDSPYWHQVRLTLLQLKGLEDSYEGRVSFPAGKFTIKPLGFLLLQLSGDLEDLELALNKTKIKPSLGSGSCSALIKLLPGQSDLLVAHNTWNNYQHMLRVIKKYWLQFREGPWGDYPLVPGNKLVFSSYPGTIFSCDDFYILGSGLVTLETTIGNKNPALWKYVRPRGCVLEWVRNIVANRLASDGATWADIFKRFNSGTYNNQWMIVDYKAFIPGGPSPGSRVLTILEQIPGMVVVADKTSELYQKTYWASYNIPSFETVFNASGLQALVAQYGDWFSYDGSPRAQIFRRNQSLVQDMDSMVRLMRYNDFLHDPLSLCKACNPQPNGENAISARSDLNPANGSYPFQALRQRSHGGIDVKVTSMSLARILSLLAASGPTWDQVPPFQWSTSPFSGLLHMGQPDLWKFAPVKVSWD
# UniProt P40855: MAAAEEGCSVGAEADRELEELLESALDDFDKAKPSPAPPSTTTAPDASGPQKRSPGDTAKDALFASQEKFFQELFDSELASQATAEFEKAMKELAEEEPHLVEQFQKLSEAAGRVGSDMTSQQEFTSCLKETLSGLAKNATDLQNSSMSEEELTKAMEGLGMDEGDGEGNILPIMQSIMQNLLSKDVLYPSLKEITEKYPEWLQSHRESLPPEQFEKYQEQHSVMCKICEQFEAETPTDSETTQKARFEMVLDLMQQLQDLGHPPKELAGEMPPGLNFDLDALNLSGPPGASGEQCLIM
# UniProt Q15149: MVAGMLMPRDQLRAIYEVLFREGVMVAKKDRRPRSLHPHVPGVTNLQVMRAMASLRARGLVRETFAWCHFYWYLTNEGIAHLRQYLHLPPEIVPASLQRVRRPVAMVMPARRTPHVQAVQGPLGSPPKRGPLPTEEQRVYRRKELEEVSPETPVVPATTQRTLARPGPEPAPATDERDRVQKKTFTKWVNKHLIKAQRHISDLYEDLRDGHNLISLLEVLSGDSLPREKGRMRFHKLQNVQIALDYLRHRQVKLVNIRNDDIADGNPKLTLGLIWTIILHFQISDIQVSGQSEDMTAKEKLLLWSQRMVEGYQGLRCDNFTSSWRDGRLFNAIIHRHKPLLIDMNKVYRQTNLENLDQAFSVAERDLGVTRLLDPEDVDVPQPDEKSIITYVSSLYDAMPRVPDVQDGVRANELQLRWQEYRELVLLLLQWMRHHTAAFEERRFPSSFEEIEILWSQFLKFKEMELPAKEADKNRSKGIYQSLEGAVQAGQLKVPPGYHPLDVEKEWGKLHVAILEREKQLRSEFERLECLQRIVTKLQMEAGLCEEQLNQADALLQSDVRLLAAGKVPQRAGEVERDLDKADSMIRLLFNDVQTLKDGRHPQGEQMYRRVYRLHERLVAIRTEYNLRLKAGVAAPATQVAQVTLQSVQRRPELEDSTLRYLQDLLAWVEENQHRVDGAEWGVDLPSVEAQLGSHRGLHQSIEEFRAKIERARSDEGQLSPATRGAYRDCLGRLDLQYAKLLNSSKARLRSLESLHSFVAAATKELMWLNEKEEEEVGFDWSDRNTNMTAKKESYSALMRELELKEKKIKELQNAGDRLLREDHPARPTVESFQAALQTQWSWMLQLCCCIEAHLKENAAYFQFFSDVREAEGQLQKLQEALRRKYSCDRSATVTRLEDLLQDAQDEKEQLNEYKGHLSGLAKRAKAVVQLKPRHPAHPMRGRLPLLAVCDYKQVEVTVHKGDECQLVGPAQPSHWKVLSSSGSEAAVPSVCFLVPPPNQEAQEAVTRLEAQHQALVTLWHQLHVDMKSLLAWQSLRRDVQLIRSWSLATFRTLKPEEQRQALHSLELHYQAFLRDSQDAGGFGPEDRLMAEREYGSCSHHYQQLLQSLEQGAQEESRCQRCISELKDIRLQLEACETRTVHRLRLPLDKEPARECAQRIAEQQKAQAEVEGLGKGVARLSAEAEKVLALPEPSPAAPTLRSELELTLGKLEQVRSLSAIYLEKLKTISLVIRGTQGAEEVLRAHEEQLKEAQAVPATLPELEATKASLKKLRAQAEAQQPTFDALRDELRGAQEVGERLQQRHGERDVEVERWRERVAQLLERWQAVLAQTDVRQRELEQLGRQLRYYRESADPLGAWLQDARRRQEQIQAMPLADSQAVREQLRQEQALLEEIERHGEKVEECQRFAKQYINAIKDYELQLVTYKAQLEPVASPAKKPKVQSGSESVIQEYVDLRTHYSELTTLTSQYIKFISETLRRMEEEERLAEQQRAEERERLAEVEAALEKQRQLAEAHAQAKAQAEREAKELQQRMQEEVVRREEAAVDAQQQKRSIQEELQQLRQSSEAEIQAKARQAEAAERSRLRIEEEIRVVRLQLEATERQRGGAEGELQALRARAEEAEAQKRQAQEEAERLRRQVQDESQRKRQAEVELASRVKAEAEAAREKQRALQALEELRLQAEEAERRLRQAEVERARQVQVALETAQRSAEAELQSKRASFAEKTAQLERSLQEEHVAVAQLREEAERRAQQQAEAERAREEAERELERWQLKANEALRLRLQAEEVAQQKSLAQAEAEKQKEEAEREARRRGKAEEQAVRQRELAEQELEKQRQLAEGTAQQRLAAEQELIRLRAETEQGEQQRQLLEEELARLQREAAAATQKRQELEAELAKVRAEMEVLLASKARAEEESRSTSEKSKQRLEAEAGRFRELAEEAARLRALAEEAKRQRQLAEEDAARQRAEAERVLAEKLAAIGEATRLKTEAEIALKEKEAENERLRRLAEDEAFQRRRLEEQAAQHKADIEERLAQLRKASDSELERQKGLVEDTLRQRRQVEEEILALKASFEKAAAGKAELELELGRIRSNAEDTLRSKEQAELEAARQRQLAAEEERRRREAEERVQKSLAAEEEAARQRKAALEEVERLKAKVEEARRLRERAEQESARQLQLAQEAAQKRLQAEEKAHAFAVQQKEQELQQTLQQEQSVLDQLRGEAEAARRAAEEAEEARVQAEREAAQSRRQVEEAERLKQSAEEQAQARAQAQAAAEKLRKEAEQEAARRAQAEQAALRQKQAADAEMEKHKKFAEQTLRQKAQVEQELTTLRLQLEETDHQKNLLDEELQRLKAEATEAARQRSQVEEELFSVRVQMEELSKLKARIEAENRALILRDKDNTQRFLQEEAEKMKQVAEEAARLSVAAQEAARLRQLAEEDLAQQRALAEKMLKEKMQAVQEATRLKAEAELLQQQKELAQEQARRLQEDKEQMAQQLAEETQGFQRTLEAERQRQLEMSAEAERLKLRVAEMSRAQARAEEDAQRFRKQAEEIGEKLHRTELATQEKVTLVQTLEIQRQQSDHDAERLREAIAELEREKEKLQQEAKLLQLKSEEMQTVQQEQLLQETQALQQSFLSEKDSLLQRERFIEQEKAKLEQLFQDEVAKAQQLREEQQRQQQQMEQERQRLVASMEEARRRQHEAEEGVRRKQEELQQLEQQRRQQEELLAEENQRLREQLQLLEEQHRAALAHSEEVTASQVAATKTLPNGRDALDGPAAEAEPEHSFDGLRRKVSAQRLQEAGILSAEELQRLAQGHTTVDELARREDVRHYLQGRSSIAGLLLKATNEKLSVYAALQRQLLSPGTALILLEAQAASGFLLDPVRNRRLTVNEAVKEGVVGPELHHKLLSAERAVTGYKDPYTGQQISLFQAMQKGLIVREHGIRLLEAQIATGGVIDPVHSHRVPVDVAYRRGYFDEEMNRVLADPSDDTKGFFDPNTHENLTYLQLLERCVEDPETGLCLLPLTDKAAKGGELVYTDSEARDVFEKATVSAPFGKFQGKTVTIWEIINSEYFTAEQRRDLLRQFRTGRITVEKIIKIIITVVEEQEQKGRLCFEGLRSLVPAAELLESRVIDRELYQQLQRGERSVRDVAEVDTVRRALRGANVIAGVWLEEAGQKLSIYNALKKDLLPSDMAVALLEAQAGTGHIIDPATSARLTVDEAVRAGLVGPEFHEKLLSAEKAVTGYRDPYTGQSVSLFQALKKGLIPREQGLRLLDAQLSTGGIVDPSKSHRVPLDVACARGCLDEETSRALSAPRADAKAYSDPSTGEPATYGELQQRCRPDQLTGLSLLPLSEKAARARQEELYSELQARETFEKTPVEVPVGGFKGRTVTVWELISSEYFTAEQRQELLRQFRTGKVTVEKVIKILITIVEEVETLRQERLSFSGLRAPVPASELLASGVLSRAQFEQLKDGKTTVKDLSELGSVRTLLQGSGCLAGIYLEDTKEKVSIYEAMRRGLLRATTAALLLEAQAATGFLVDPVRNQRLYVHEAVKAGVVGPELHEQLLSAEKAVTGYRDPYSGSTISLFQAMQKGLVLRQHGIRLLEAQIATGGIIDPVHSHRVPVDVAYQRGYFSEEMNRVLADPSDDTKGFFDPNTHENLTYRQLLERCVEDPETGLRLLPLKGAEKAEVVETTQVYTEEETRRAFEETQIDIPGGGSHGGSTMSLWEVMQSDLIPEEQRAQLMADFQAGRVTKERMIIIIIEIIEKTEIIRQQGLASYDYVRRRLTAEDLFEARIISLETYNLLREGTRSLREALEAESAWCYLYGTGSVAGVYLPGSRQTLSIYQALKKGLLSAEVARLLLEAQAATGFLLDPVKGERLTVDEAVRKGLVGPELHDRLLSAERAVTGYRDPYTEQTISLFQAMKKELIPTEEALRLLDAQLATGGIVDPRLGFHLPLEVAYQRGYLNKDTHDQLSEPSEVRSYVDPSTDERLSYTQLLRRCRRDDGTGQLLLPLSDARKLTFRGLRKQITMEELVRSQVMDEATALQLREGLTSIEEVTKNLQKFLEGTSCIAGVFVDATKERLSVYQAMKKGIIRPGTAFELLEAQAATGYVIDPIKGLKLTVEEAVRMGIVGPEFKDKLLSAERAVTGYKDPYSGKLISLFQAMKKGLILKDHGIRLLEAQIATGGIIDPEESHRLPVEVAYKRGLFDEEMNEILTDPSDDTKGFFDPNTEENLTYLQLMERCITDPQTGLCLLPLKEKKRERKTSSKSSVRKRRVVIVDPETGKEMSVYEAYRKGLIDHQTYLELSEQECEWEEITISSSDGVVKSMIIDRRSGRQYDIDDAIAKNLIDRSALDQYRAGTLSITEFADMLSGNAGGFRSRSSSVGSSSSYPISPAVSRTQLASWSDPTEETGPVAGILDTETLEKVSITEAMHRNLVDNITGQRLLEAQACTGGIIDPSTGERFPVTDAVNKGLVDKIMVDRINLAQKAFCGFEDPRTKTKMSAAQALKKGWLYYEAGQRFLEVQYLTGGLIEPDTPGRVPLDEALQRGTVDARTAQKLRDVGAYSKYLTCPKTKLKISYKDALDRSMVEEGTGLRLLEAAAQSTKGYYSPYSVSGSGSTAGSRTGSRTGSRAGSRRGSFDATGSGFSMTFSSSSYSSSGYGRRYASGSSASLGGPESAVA
# This is one part of the list.
# Experiments:
# Experiment in all cases: log2 fold change, soluble protein after heating vs DMSO (PISA); higher = thermal stabilisation; K562 cells, 10 uM, 30 min; active = over 0.2 and 3.5 SD of the protein, either way, in both replicates (recomputed)
# [1] = compound: NC(=O)Nc1cc(-c2cccc(F)c2)sc1C(=O)N[C@H]1CCCNC1
# How it was run: (§1)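 K562 cells at 2×10^6 cells/mL were given 10 μM compound for 30 min. Aliquots then went through 3 min of heating across 48°C-58°C, were pooled, and were extracted in PBS with 0.5% NP-40 at 4°C, and the supernatant after 21,000xg for 90 min was quantified by TMTpro 16plex LC-MS/MS with channel sums equalised. Thermal stability relative to control samples, from duplicates, is given as log2 fold change.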
# [2] = compound: NC(=O)c1cnc(N[C@@H]2CCCC[C@@H]2N)nc1Nc1cccc(-n2nccn2)c1
# How it was run: as §1
# [3] = compound: NC1(c2ccc(-c3nc4ccn5c(=O)[nH]nc5c4cc3-c3ccccc3)cc2)CCC1
# How it was run: as §1
# [4] = compound: NCC(=O)Nc1ccc(-n2nc(C(F)(F)F)cc2-c2ccc3c(ccc4ccccc43)c2)cc1
# How it was run: as §1
# [5] = compound: Nc1ccccc1NC(=O)c1ccc(CNC(=O)OCc2cccnc2)cc1 [entinostat]
# How it was run: as §1
# [6] = compound: O=C(CCCCCCC(=O)Nc1ccccc1)NO [vorinostat]
# How it was run: as §1
# [7] = compound: O=C(CCCCCCNC(=O)c1cnc(N(c2ccccc2)c2ccccc2Cl)nc1)NO [citarinostat]
# How it was run: as §1
# [8] = compound: O=C(O)c1ccc2c(c1)nc(Nc1cccc(Cl)c1)c1ccncc12 [silmitasertib]
# How it was run: as §1
# [9] = compound: O=C1NC(=O)C(c2cnc3ccccn23)=C1c1cn2c3c(cc(F)cc13)CN(C(=O)N1CCCCC1)CC2
# How it was run: as §1
# [10] = compound: c1cc(OCCN2CCCCC2)cc(-c2n[nH]c3ccc(-c4nnc[nH]4)cc23)c1
# How it was run: as §1
Target,log2 fold change [1],log2 fold change [2],log2 fold change [3],log2 fold change [4],log2 fold change [5],log2 fold change [6],log2 fold change [7],log2 fold change [8],log2 fold change [9],log2 fold change [10]
PIEZO1 (UniProt Q92508),inactive: -0.138,inactive: -0.004,inactive: -0.014,inactive: 0.013,inactive: -0.057,inactive: -0.067,inactive: 0.006,inactive: 0.007,inactive: 0.032,inactive: -0.043
PGAM1 (UniProt P18669),inactive: 0.086,inactive: 0.004,inactive: 0.05,inactive: 0.027,inactive: -0.006,inactive: 0.019,inactive: -0.018,inactive: -0.037,inactive: -0.006,inactive: 0.044
PITHD1 (UniProt Q9GZP4),inactive: -0.009,inactive: -0.004,inactive: 0.056,inactive: 0,inactive: 0.04,inactive: -0.042,inactive: -0.036,inactive: 0,inactive: -0.048,inactive: 0
PGK2 (UniProt P07205),inactive: -0.056,inactive: -0.032,inactive: -0.038,inactive: -0.134,inactive: 0.021,inactive: -0.056,inactive: -0.121,inactive: 0.172,active: -0.532,inactive: -0.012
PFKFB4 (UniProt Q16877),inactive: -0.049,inactive: 0.028,inactive: -0.079,inactive: -0.073,inactive: -0.022,inactive: 0.009,inactive: 0.043,inactive: 0.012,inactive: -0.013,inactive: -0.033
PIP5K1A (UniProt Q99755),inactive: 0.079,inactive: 0.006,inactive: 0.06,inactive: -0.063,inactive: 0.082,inactive: 0.051,inactive: 0.057,inactive: -0.077,inactive: 0.182,inactive: -0.252
PKLR (UniProt P30613),inactive: 0.03,inactive: 0.009,inactive: 0.005,inactive: 0.052,inactive: -0.021,inactive: 0.016,inactive: 0.018,inactive: -0.034,inactive: -0.026,inactive: 0.005
PHF23 (UniProt Q9BUL5),inactive: -0.002,inactive: 0.011,inactive: 0.015,inactive: -0.026,inactive: -0.074,inactive: 0.014,inactive: -0.064,inactive: -0.056,inactive: 0.012,inactive: -0.023
PGS1 (UniProt Q32NB8),inactive: 0.081,inactive: -0.028,inactive: -0.122,inactive: 0.047,inactive: 0.117,inactive: -0.021,inactive: -0.051,inactive: -0.06,inactive: -0.021,inactive: -0.044
PHF3 (UniProt Q92576),inactive: 0.107,inactive: 0.124,inactive: 0.106,inactive: 0.033,inactive: 0.014,inactive: 0.042,inactive: -0.06,inactive: 0.117,inactive: -0.001,inactive: -0.202
PLCG1 isoform 2 (UniProt P19174),inactive: 0.01,inactive: -0.193,inactive: -0.197,inactive: -0.109,inactive: 0.04,inactive: -0.003,inactive: 0.059,inactive: 0.01,inactive: 0,inactive: -0.066
PIGS (UniProt Q96S52),inactive: -0.02,inactive: -0.024,inactive: -0.045,inactive: -0.025,inactive: 0.008,inactive: -0.02,inactive: 0.02,inactive: 0.002,inactive: -0.005,inactive: -0.023
PGLS (UniProt O95336),inactive: 0.065,inactive: 0.143,inactive: 0,inactive: 0.098,inactive: 0.003,inactive: -0.089,inactive: -0.019,inactive: -0.025,inactive: -0.095,inactive: -0.025
PFN1 (UniProt P07737),inactive: -0.015,inactive: -0.007,inactive: -0.049,inactive: -0.051,inactive: 0.013,inactive: -0.013,inactive: 0.038,inactive: -0.004,inactive: -0.026,inactive: -0.02
PIGU (UniProt Q9H490),inactive: 0.022,inactive: 0.061,inactive: -0.164,inactive: 0.027,inactive: -0.019,inactive: 0.141,inactive: 0.01,inactive: -0.007,inactive: 0.026,inactive: 0.059
PHB (UniProt P35232),inactive: -0.026,inactive: -0.055,inactive: -0.005,inactive: -0.036,inactive: 0.049,inactive: -0.026,inactive: 0.022,inactive: 0.004,inactive: -0.052,inactive: -0.035
PHGDH (UniProt O43175),inactive: 0.038,inactive: -0.009,inactive: 0.013,inactive: 0.015,inactive: 0.002,inactive: -0.027,inactive: 0.025,inactive: -0.055,inactive: 0,inactive: 0.011
PLCH1 (UniProt Q4KWH8),inactive: -0.069,inactive: -0.053,inactive: -0.191,inactive: -0.088,inactive: -0.059,inactive: -0.095,inactive: 0.074,inactive: 0.04,inactive: -0.061,inactive: -0.009
PFDN5 (UniProt Q99471),inactive: 0.082,inactive: 0.03,inactive: 0.032,inactive: 0.04,inactive: 0.086,inactive: 0.045,inactive: 0.06,inactive: -0.039,inactive: -0.101,inactive: 0
PIP4K2C (UniProt Q8TBX8),inactive: 0.016,inactive: 0.192,inactive: -0.125,inactive: 0.293,inactive: -0.027,inactive: -0.071,inactive: -0.036,inactive: 0.497,inactive: 0.12,inactive: 0.036
PKM (UniProt P14618),inactive: 0.01,inactive: -0.029,inactive: 0.011,inactive: -0.025,inactive: -0.013,inactive: -0.009,inactive: 0.016,inactive: -0.016,inactive: -0.032,inactive: -0.02
PEX2 (UniProt P28328),inactive: 0.032,inactive: 0.019,inactive: -0.17,inactive: -0.051,inactive: -0.079,inactive: 0.03,inactive: 0.156,inactive: 0.156,inactive: -0.016,inactive: -0.034
PLBD2 (UniProt Q8NHP8),inactive: -0.002,inactive: 0.049,inactive: -0.091,inactive: -0.004,inactive: -0.008,inactive: -0.073,inactive: 0.003,inactive: 0.017,inactive: 0.001,inactive: -0.006
PEX19 (UniProt P40855),inactive: 0.043,inactive: 0.038,inactive: 0.058,inactive: 0.026,inactive: -0.015,inactive: 0.004,inactive: -0.025,inactive: -0.005,inactive: -0.009,inactive: 0.051
PKP3 isoform 2 (UniProt Q9Y446),inactive: -0.045,inactive: 0.032,inactive: 0.081,inactive: 0,inactive: 0.187,inactive: 0.281,inactive: -0.038,inactive: 0.068,inactive: 0.252,inactive: -0.133
PFDN2 (UniProt Q9UHV9),inactive: 0.021,inactive: -0.027,inactive: 0.009,inactive: 0.02,inactive: -0.004,inactive: -0.02,inactive: 0.043,inactive: 0.001,inactive: -0.036,inactive: -0.003
PLCB3 (UniProt Q01970),inactive: -0.005,inactive: -0.086,inactive: -0.141,inactive: -0.023,inactive: 0.037,inactive: -0.008,inactive: -0.007,inactive: 0.008,inactive: 0.005,inactive: 0.064
PIN4 isoform 2 (UniProt Q9Y237),inactive: -0.089,inactive: 0.005,inactive: -0.026,inactive: -0.033,inactive: -0.014,inactive: -0.019,inactive: 0.035,inactive: 0.006,inactive: -0.063,inactive: -0.033
PLEC (UniProt Q15149),inactive: -0.047,inactive: 0.015,inactive: 0.122,inactive: -0.052,inactive: -0.019,inactive: 0.032,inactive: 0.011,inactive: -0.019,inactive: 0.028,inactive: -0.04

# A different layout for part of the listing above.
Target | log2 fold change [1] | log2 fold change [2] | log2 fold change [3] | log2 fold change [4] | log2 fold change [5] | log2 fold change [6] | log2 fold change [7] | log2 fold change [8] | log2 fold change [9] | log2 fold change [10]
PFN1 (UniProt P07737) | inactive: -0.015 | inactive: -0.007 | inactive: -0.049 | inactive: -0.051 | inactive: 0.013 | inactive: -0.013 | inactive: 0.038 | inactive: -0.004 | inactive: -0.026 | inactive: -0.02
PFDN2 (UniProt Q9UHV9) | inactive: 0.021 | inactive: -0.027 | inactive: 0.009 | inactive: 0.02 | inactive: -0.004 | inactive: -0.02 | inactive: 0.043 | inactive: 0.001 | inactive: -0.036 | inactive: -0.003
